{"source": "paper doi:10.1101/2022.01.25.477707", "about": "(bioRxiv, 2022)", "binders": {"B1": {"name": "Gemin5 endogenous protein (natural protein, human (endogenous in HEK293), UniProt Q8TEQ6 1-1508, looked up)", "chain": "MGQEPRTLPPSPNWYCARCSDAVPGGLFGFAARTSVFLVRVGPGAGESPGTPPFRVIGELVGHTERVSGFTFSHHPGQYNLCATSSDDGTVKIWDVETKTVVTEHALHQHTISTLHWSPRVKDLIVSGDEKGVVFCYWFNRNDSQHLFIEPRTIFCLTCSPHHEDLVAIGYKDGIVVIIDISKKGEVIHRLRGHDDEIHSIAWCPLPGEDCLSINQEETSEEAEITNGNAVAQAPVTKGCYLATGSKDQTIRIWSCSRGRGVMILKLPFLKRRGGGIDPTVKERLWLTLHWPSNQPTQLVSSCFGGELLQWDLTQSWRRKYTLFSASSEGQNHSRIVFNLCPLQTEDDKQLLLSTSMDRDVKCWDIATLECSWTLPSLGGFAYSLAFSSVDIGSLAIGVGDGMIRVWNTLSIKNNYDVKNFWQGVKSKVTALCWHPTKEGCLAFGTDDGKVGLYDTYSNKPPQISSTYHKKTVYTLAWGPPVPPMSLGGEGDRPSLALYSCGGEGIVLQHNPWKLSGEAFDINKLIRDTNSIKYKLPVHTEISWKADGKIMALGNEDGSIEIFQIPNLKLICTIQQHHKLVNTISWHHEHGSQPELSYLMASGSNNAVIYVHNLKTVIESSPESPVTITEPYRTLSGHTAKITSVAWSPHHDGRLVSASYDGTAQVWDALREEPLCNFRGHRGRLLCVAWSPLDPDCIYSGADDFCVHKWLTSMQDHSRPPQGKKSIELEKKRLSQPKAKPKKKKKPTLRTPVKLESIDGNEEESMKENSGPVENGVSDQEGEEQAREPELPCGLAPAVSREPVICTPVSSGFEKSKVTINNKVILLKKEPPKEKPETLIKKRKARSLLPLSTSLDHRSKEELHQDCLVLATAKHSRELNEDVSADVEERFHLGLFTDRATLYRMIDIEGKGHLENGHPELFHQLMLWKGDLKGVLQTAAERGELTDNLVAMAPAAGYHVWLWAVEAFAKQLCFQDQYVKAASHLLSIHKVYEAVELLKSNHFYREAIAIAKARLRPEDPVLKDLYLSWGTVLERDGHYAVAAKCYLGATCAYDAAKVLAKKGDAASLRTAAELAAIVGEDELSASLALRCAQELLLANNWVGAQEALQLHESLQGQRLVFCLLELLSRHLEEKQLSEGKSSSSYHTWNTGTEGPFVERVTAVWKSIFSLDTPEQYQEAFQKLQNIKYPSATNNTPAKQLLLHICHDLTLAVLSQQMASWDEAVQALLRAVVRSYDSGSFTIMQEVYSAFLPDGCDHLRDKLGDHQSPATPAFKSLEAFFLYGRLYEFWWSLSRPCPNSSVWVRAGHRTLSVEPSQQLDTASTEETDPETSQPEPNRPSELDLRLTEEGERMLSTFKELFSEKHASLQNSQRTVAEVQETLAEMIRQHQKSQLCKSTANGPDKNEPEVEAEQPLCSSQSQCKEEKNEPLSLPELTKRLTEANQRMAKFPESIKAWPFPDVLECCLVLLLIRSHFPGCLAQEMQQQAQELLQKYGNTKTYRRHCQTFCM"}}, "biological_target": "G5_(845-1508)-WT-TAP (human) (UniProt Q8TEQ6)", "experiment": "affinity purification with mass spectrometry", "note": "These are yes or no findings as the source states them, for the method shown. In cells and extracts the contact can be indirect. A yes stands for co-enrichment or nearness to the bait. Other partners may have been found."}
{"binder": "B1", "values": [{"measurement": "binding", "value": "binds"}]}
